# Values joined by “and” are separate entries in the source; they are usually repeats but may differ in a detail not shown here. Identical values can stand only once. Among all 390,000 compounds or so, about 4,000 (1%) were called active. This list was built around the results that the source calls inconclusive (neither active nor inactive); the mix of calls is not that of the screen. Calls follow the shape of the dose curve; as a rule, active = well fitted inhibition curve with a large enough effect; inconclusive = small, poorly fitted or top-dose-only effect, or another doubt; inactive = no such curve, though single readings can be large or run the other way. Where the call is inconclusive, the potency comes from a doubtful curve fit.
# Sequences of proteins named here, by UniProt entry; tags and fusion partners are left off. A change or cut given only in a name is not applied to a line headed by its entry.
# UniProt Q9UNA4: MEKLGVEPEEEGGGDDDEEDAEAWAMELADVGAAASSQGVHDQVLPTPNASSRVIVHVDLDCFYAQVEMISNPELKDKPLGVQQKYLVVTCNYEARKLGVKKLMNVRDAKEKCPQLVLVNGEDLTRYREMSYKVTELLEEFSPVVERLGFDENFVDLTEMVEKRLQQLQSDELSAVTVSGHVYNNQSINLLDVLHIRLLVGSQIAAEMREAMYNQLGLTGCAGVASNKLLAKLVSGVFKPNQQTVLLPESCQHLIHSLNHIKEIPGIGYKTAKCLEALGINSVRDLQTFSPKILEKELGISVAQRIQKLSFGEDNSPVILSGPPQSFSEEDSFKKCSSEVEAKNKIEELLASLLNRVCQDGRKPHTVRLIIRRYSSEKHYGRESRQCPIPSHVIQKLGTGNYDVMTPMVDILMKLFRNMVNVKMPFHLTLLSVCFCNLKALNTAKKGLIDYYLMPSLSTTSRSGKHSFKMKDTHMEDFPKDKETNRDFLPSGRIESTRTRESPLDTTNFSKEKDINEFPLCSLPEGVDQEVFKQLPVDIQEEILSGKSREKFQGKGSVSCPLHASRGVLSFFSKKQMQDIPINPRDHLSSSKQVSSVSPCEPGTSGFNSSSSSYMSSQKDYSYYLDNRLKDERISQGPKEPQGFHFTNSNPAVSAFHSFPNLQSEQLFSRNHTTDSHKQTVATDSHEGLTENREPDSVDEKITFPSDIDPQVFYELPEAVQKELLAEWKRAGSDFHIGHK
# Molecular target: DNA polymerase iota (Homo sapiens) (UniProt Q9UNA4)
# Assay: qHTS for Inhibitors of Polymerase Iota
# Conditions: Pol iota fluorescent replication assay, 10 min; series mostly up to 115 µM
# Outline: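 Fluorescent replication assay read twice, at 0 min and 10 min after adding 50 nM (final) substrate. Enzyme (10 nM) and compounds were first incubated 15 min at room temperature; enzyme-free buffer wells were negative controls.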
# Potency is read from the fitted curve at half-maximal effect.
row,Structure (SMILES),Potency
1,CC(C)[C@H](NC(=O)c1ccccc1Cl)C(=O)OCC(=O)NC(=O)NCc1ccco1,"inconclusive: 44.7 µM [inhibitor, full curve, poor fit]"
2,CCCC(C(=O)NC(C)(C)C)N(CCN1CCOCC1)C(=O)CNS(=O)(=O)c1ccccc1 (centres undefined),inactive
3,COc1ccc(CC(=O)Nc2sc(Cc3ccccc3)c(C)c2C(N)=O)cc1,"inconclusive: 56.2 µM [inhibitor, partial curve, poor fit]"
4,COc1cc(C(=O)OCC(=O)c2cc(C)n(CC3CCCO3)c2C)cc(OC)c1C (centres undefined),"inconclusive: 56.2 µM [inhibitor, partial curve, poor fit]"
5,Cc1cc(C)n(-c2cc(C)c(C)cc2Br)n1,"inconclusive: 39.8 µM [inhibitor, partial curve, poor fit]"
6,CC(C)COc1ccccc1C1CC(=O)Nc2cc3c(cc21)OCO3 (centres undefined),inactive
7,COC(=O)C1CCN(C(=O)c2cc(-c3ccco3)nc3ccccc23)CC1,"inconclusive: 3.55 µM [inhibitor, full curve, poor fit]"
8,CCNc1nc(C#N)nc2c1ncn2-c1cc(F)cc(F)c1,inactive
9,CCOCCCn1c(SC(C)C(=O)NCC2CCCO2)nc2sc(C)c(C)c2c1=O (centres undefined),"inconclusive: 70.8 µM [inhibitor, partial curve, poor fit]"
10,CN(C)c1nc(N)nc(CSc2nnnn2-c2ccccc2)n1,"inconclusive: 112 µM [inhibitor, partial curve, poor fit]"
11,Cc1ccc(CN(Cc2ccco2)C(=O)c2oc3c(C)c(C)ccc3c2C)cc1,"inconclusive: 15.8 µM [inhibitor, full curve, poor fit]"
12,COc1ccc(Cl)cc1NC(=O)c1c(NCc2ccc(C)o2)sc2c1CCCC2,"inconclusive: 12.6 µM [inhibitor, full curve, poor fit]"
13,CCN(CC)C(=O)CSc1nc2sc(C)c(C)c2c(=O)[nH]1,"inconclusive: 31.6 µM [inhibitor, partial curve, poor fit]"
14,CCOC(=O)c1c(C)[nH]c(C(=O)COc2ccc3ccc(=O)oc3c2)c1C,"inconclusive: 70.8 µM [inhibitor, partial curve]"
15,COc1ccc(CCC(=O)OCC(=O)Nc2sccc2C(N)=O)cc1,"inconclusive: 63.1 µM [inhibitor, partial curve, poor fit]"
16,COc1ccc(N(CC(=O)NCCSCc2cccc(Cl)c2)S(C)(=O)=O)cc1,"inconclusive: 89.1 µM [inhibitor, single point]"
17,COc1ccccc1CNC(=O)C1CCN(S(=O)(=O)c2ccc3c(c2)CC(C)N3C(=O)C2CC2)CC1 (centres undefined),"inconclusive: 25.1 µM [inhibitor, single point]"
18,O=C1NC(=S)SC1=Cc1ccccc1Cl,"inconclusive: 20 µM [inhibitor, partial curve, poor fit]"
19,CCC(=O)N(CCC(Cc1ccccc1)c1ccc2c(c1)OCO2)Cc1ccccc1F (centres undefined),"inconclusive: 35.5 µM [inhibitor, partial curve, poor fit]"
20,Clc1nc(NCc2ccco2)c2[nH]cnc2n1,inactive
21,CN(C)c1ccc(-c2c(-c3ccc4c(c3)OCO4)noc2-c2ccsc2)cn1,"inactive and inconclusive: 89.1 µM [inhibitor, partial curve, poor fit]"
22,CCOc1ccccc1N(CC(=O)NCCSc1ccccc1)S(C)(=O)=O,inactive

row,Structure (SMILES),Potency
1,O=S(=O)(O)c1cccc2cccc(Nc3ccccc3)c12,active: 3.16 µM and active: 28.2 µM
2,COc1cccc(/C=N/c2nc3ccccc3[nH]2)c1O,"inconclusive: 25.1 µM [inhibitor, single point]"
3,COc1ccc(C)cc1NC(=O)c1ccc2c(c1)nnn2C1CCCC1,inactive
4,Cc1oc(C)c2c(=O)ccc3c(c12)OC(N)=C(C#N)C3c1ccc(F)cc1 (centres undefined),"inconclusive: 14.1 µM [inhibitor, full curve, poor fit]"
5,CCn1c2ccccc2c2cc(CN3CCN(Cc4ccccc4C)CC3)ccc21,inactive
6,CCc1ccc(NC(=O)Cn2c(-c3cncs3)nc3ccccc32)cc1,inactive
7,Cc1ccc(NC(=O)Cn2c(=O)n(Cc3ccc4c(c3)OCO4)c(=O)c3ccc(C(=O)NC4CCCCC4)cc32)c(C)c1,"inconclusive: 89.1 µM [inhibitor, single point]"
8,COc1ccc(Cc2nnc(NS(=O)(=O)c3ccc([N+](=O)[O-])cc3)s2)cc1,"inconclusive: 39.8 µM [inhibitor, single point]"
9,COc1ccc(/C=C/C2=CC(C)(C)NC(=S)N2)cc1OC,"inconclusive: 44.7 µM [inhibitor, partial curve, poor fit]"
10,CN(C)/C=C/C(=O)c1ccc(Oc2ccccc2)cc1,"inconclusive: 6.31 µM [inhibitor, full curve, poor fit]"
11,CNS(=O)(=O)c1cccc(C(=O)OCC(=O)/C=C2/N(C)c3ccccc3C2(C)C)c1,"inconclusive: 8.91 µM [inhibitor, full curve, poor fit]"
12,CC1=NN(c2ccccc2)C(=O)C1C(=O)C(=O)Nc1ccc(F)cc1 (centres undefined),"inconclusive: 25.1 µM [inhibitor, partial curve, poor fit]"
13,COc1cccc(CN(Cc2ccco2)S(=O)(=O)c2ccc(S(=O)(=O)NCc3ccccc3)cc2)c1OC,"inconclusive: 100 µM [inhibitor, partial curve, poor fit]"
14,Cc1ccnc2ccc3ccccc3c12,"inconclusive: 79.4 µM [inhibitor, partial curve]"
15,CN(C)CCNc1c2c(nc3ccccc13)CCC2,"inconclusive: 63.1 µM [inhibitor, single point]"
16,COc1ccc(CNC(=O)C(c2ccco2)N(Cc2ccccc2)C(=O)Cc2cccs2)cc1 (centres undefined),"inconclusive: 35.5 µM [inhibitor, single point]"
17,CN(C)CCCNc1ncnc2sc(-c3ccccc3)cc12,"inconclusive: 50.1 µM [inhibitor, partial curve]"
18,CCc1ccc(S(=O)(=O)c2nnn3c2nc(NCCNC(C)=O)c2cc(Cl)ccc23)cc1,inactive
19,COc1cc(-c2cc(OC)c3c(C)oc(C)c3c(=O)c2)ccc1OC(=O)c1cccc(Cl)c1,inactive
20,CC(C)c1ccc(OCc2cc(=O)n3c(-c4ccccc4)csc3n2)cc1,"inconclusive: 89.1 µM [inhibitor, single point]"
21,CCOC(=O)C1=C(C)N(CCCC(=O)O)C(=O)NC1c1ccccc1OS(=O)(=O)c1ccc([N+](=O)[O-])cc1 (centres undefined),inactive
22,COc1ccc(NC(=O)CSc2ncnc3[nH]ncc23)cc1,"inconclusive: 17.8 µM [inhibitor, partial curve, poor fit]"

row,Structure (SMILES),Potency
1,CSc1ccc(Cl)c(C(=O)OCC(=O)NCc2ccco2)c1,"inconclusive: 8.91 µM [inhibitor, full curve, poor fit]"
2,O=C(NCc1ccco1)c1cc2c(s1)CSC2,"inconclusive: 3.98 µM [inhibitor, full curve, poor fit]"
3,CC1(C)CC(=O)C(/C=N/n2cnc3ccccc3c2=O)=C(O)C1,"inconclusive: 39.8 µM [inhibitor, single point]"
4,OC1CCCN(Cc2c3ccccc3cc3ccccc23)C1 (centres undefined),"inconclusive: 28.2 µM [inhibitor, full curve]"
5,COc1ccc(N2CCN(c3csc4ccccc4c3=O)CC2)cc1,"inconclusive: 39.8 µM [inhibitor, single point]"
6,COc1ccc(/C=N/Nc2cc(C)nc3ccc(Br)cc23)cc1,inactive
7,O=C(c1cccs1)N(Cc1cc2ccccc2[nH]c1=O)c1ccccc1,"inconclusive: 79.4 µM [inhibitor, partial curve, poor fit]"
8,CC(Sc1oc(-c2cccs2)nc1S(=O)(=O)c1ccccc1)c1ccccc1 (centres undefined),inactive
9,Cc1ccc(C2=NN(C(=O)CCl)C(c3ccco3)C2)o1 (centres undefined),"inconclusive: 31.6 µM [inhibitor, partial curve, poor fit]"
10,COc1ccccc1C(C)NC(=O)c1ccc(NC(=O)CC2SC(N3CCCC3)=NC2=O)cc1 (centres undefined),"inconclusive: 89.1 µM [inhibitor, partial curve, poor fit]"
11,Cc1ccc2c(c1)N(CCCC(=O)NCc1cccc(F)c1)C(=O)CO2,"inconclusive: 100 µM [inhibitor, partial curve, poor fit]"
12,COc1ccccc1OCC(=O)Nc1c(C(=O)c2ccc(F)cc2)oc2ccccc12,inactive
13,COc1ccc(/C=N/n2cnn(Cc3ccccc3Cl)c2=S)cc1OC,"inconclusive: 79.4 µM [inhibitor, partial curve]"
14,CN(CC(=O)Nc1ccccc1C(F)(F)F)C(=O)CCc1nc2sc3c(c2c(=O)[nH]1)CCCC3,"inconclusive: 39.8 µM [inhibitor, partial curve, poor fit]"
15,CCCCN(C(=O)c1cc2c(s1)CCC2)c1c(N)n(CCCC)c(=O)[nH]c1=O,"inconclusive: 50.1 µM [inhibitor, partial curve, poor fit]"
16,CCCNC(=O)C(=O)N/N=C/c1ccc(OCc2ccccc2)cc1,inactive
17,CC(C)Oc1ccc(NC(=O)Oc2ccccc2)cc1,"inconclusive: 79.4 µM [inhibitor, single point]"
18,COc1ccccc1NC(=O)CSc1sc2c(O)cc(=O)[nH]c2c1C#N,active: 2.82 µM
19,COC(=O)c1ccc(CC(=O)c2c(C)cc(O)cc2O)o1,"inconclusive: 10 µM [inhibitor, full curve, poor fit]"
20,CN=C1N(C)C[C@@H]2[C@@H]3C(=O)N(Cc4ccccc4)C(=O)[C@@H]3[C@](Cc3ccccc3)(C(=O)OC)N12,"inconclusive: 39.8 µM [inhibitor, partial curve, poor fit]"
